3 molecules from ChEMBL document CHEMBL1141686, “Discovery of a novel class of PPARdelta partial agonists” (Bioorg Med Chem Lett, 2008) can be followed below.

This assay deals with T1, Peroxisome proliferator-activated receptor gamma (Homo sapiens, UniProt P37231).
T1 sequence (P37231 whole entry): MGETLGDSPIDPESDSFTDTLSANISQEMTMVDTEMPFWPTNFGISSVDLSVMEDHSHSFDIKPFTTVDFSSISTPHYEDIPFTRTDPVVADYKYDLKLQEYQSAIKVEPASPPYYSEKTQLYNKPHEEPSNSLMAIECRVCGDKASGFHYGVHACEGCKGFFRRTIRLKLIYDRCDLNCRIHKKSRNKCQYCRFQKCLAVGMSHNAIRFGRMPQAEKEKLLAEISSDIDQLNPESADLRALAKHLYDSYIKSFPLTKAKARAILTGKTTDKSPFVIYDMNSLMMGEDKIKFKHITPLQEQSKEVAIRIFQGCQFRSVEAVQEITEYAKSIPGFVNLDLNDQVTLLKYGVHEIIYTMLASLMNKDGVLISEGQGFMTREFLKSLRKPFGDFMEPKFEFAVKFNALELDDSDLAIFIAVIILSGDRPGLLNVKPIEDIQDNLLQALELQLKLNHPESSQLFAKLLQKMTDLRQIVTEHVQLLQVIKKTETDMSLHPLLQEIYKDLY

Each structure is given as a SMILES string.

As for `Cc1cccc(C(=O)O)c1NC(=O)c1cccc(S(=O)(=O)N2CCc3ccccc3C2)c1`, the IC50 was more than 10 µM.
Regarding `Cc1cccc(NC(=O)c2cccc(S(=O)(=O)N3CCc4ccccc4C3)c2)c1C(=O)O`, the IC50 was more than 10 µM.
The molecule `COc1cccc2ccn(S(=O)(=O)c3cccc(C(=O)Nc4ccc(C)cc4C(=O)O)c3)c12` gave an IC50 of 5.01 µM.

One may read the IC50 as the concentration that gives 50% inhibition.
